Tests used:
[1] = test system: prostate cancer cell line (PC-3); experiment: MTT anticancer activity, PC-3; format: cell-based, human; details: for PC-3 SI: selectivity index, Wi-38 versus PC-3; for PC-3 LE: ligand efficiency from IC50 and number of heavy atoms; for PC-3 LLE: ligand lipophilic efficiency, potency in terms of lipophilicity
Method: (§1) Anticancer effect of the above-mentioned compounds was evaluated using four human cancer cell lines. Colon cancer cells (Caco-2), myeloid leukaemia cell line (NFS-60), liver cancer cell line (HepG-2) and prostate cancer cell line (PC-3) using MTT method was used for assaying cell viability[26] (Supplementary Page S55).
(§2) All final compounds were evaluated against four human cancer cell lines namely; liver cancer (HepG2) (ATCC® HB-8065™), colon cancer (Caco-2) (ATCC® HTB-37™), leukaemia cancer (NFS-60) (ATCC® CRL-1838™), and prostate cancer (PC-3) (ATCC® CRL-1435™) using doxorubicin (Dox) as the reference drug being widely used in tumour management utilising microculture MTT assay, declared by Mosmann[26] (Table 1 in Supplementary Material, Figures 5–8). […]
(§3) MTT method was used for assaying cell viability 25. Twenty microliters of 5 mg/ml MTT (Sigma, USA) was added to each well and the plate was incubated at 37 °C for 3 h. Then MTT solution was removed, 100 µl DMSO was used and the absorbance of each well was measured with a microplate reader ( BMG LabTech, Germany) at 570 nm. The effective concentration (IC 50) and safe dose (EC100) values of the tested compounds that cause 50% and 100% cell viability were estimated by the Graphpad Instat software.
(§4) Determination of the anticancer activity
(§5) Anticancer effect of the above-mentioned compounds was evaluated using four human cancer cell lines. Colon cancer cells (Caco-2) were maintained in DMEM (Lonza, USA) containing 10% FBS while myeloid leukemia cell line (NFS-60), liver cancer cell line (HepG-2) and prostate cancer cell line (PC-3) were cultured in RPMI-1640 (Lonza, USA) supplemented with 10% FBS. All cancer cells (5x10^3 cells/well) were seeded in sterile 96-well plates. After 24h, serial concentrations of the tested compounds and Dox were incubated with four cancer cell lines for 72 h at 37 °C in 5% CO2 incubator. MTT method was done as described above. The Graphpad Instat software was used for calculating the half maximal inhibitory concentration (IC50) values. Furthermore, phase contrast inverted microscope with a digital camera (Olympus, Japan) was used for investigating […]
(§6) safest anticancer compounds. […]

[2] = test system: myeloid leukaemia cell line (NFS-60); experiment: MTT anticancer activity, NFS-60; format: cell-based; details: selectivity index, Wi-38 versus NFS-60
Method: as §1, §2, §3, §4, §5, §6

[3] = test system: liver cancer cell line (HepG-2); experiment: MTT anticancer activity, HepG-2; format: cell-based, human; details: selectivity index, Wi-38 versus HepG-2
Method: as §1, §2, §3, §4, §5, §6

Structure (SMILES) | PC-3 SI [1] | NFS-60 SI [2] | HepG-2 SI [3] | PC-3 LE [1] | PC-3 LLE [1]
COc1ccc2nc(N3CCOCC3)c(-c3cc(-c4cccc(OC(C)=O)c4)[nH]c(=O)c3C#N)cc2c1 [7c, 3-(5-Cyano-4-(6-methoxy-2-morpholin-4-yl-quinolin-3-yl)-6-oxo-1,6-dihydropyridin-2-yl)phenyl acetate] | 1.356 | 0.895 | 0.964 |  | 
N#Cc1c(-c2cc3ccccc3nc2N2CCCCC2)cc(-c2cccc(O)c2)[nH]c1=O [5d, 6-(3-Hydroxyphenyl)-2-oxo-4-(2-(piperidin-1-yl)quinoline-3-yl)-1,2-dihydropyridine-3-carbonitrile] | 0.560 | 0.420 | 0.333 |  | 
COc1ccc(NC(=O)COc2nc(-c3cccc(O)c3)cc(-c3cc4ccccc4nc3N3CCOCC3)c2C#N)cc1 [11c] | 0.635 | 0.918 | 0.359 |  | 
N#Cc1c(-c2cc3cc(Cl)ccc3[nH]c2=O)cc(-c2cccc(O)c2)nc1S [14b, 4-(6-Chloro-2-oxo-1,2-dihydroquinolin-3-yl)-6-(3-hydroxyphenyl)-2-mercaptopyridine-3-carbonitrile] | 1.400 | 1.452 | 1.568 |  | 
N#Cc1c(-c2cc3cc(Cl)ccc3nc2N2CCOCC2)cc(-c2cccc(O)c2)nc1S [6b, 4-(6-Chloro-2-morpholin-4-yl-quinolin-3-yl)-6-(3-hydroxyphenyl)-2-mercaptopyridine-3-carbonitrile] | 1.160 | 0.676 | 2.961 |  | 
N#Cc1c(-c2cc3ccccc3nc2N2CCOCC2)cc(-c2cccc(O)c2)nc1S [6a, 6-(3-Hydroxyphenyl)-4-(2-morpholin-4-yl-quinolin-3-yl)-2-mercaptopyridine-3-carbonitrile] | 1.425 | 1.341 | 2.446 |  | 
CC(=O)Oc1cccc(-c2cc(-c3cc4ccccc4nc3N3CCOCC3)c(C#N)c(=O)[nH]2)c1 [7a, 3-(5-Cyano-4-(2-morpholin-4-yl-quinolin-3-yl)-6-oxo-1,6-dihydropyridin-2-yl)phenyl acetate] | 1.243 | 1.200 | 3.515 |  | 
COc1ccc2[nH]c(=O)c(-c3cc(-c4cccc(O)c4)[nH]c(=O)c3C#N)cc2c1 [13c, 6-(3-Hydroxyphenyl)-4-(6-methoxy-2-oxo-1,2-dihydroquinolin-3-yl)-2-oxo-1,2-dihydropyridine-3-carbonitrile] | 1.547 | 3.955 | 9.231 | 0.36 | 5.29
N#Cc1c(-c2cc3cc(Cl)ccc3nc2N2CCOCC2)cc(-c2cccc(O)c2)[nH]c1=O [5b, 4-(6-Chloro-2-morpholin-4-yl-quinolin-3-yl)-6-(3-hydroxyphenyl)-2-oxo-1,2-dihydropyridine-3-carbonitrile] | 6.552 | 18.348 | 32.386 | 0.31 | 3.52
COc1ccc2nc(N3CCOCC3)c(-c3cc(-c4cccc(O)c4)nc(OCC(=O)Nc4ccccc4)c3C#N)cc2c1 [11g, 2-((3-Cyano-6-(3-hydroxyphenyl)-4-(6-methoxy-2-morpholin-4-yl-quinolin-3-yl)pyridin-2-yl)oxy)-N-phenylacetamide] | 2.217 | 1.806 | 2.962 |  | 
N#Cc1c(-c2cc3ccccc3nc2N2CCCCC2)cc(-c2cccc(O)c2)nc1S [6d, 6-(3-Hydroxyphenyl)-4-(2-(piperidin-1-yl)quinolin-3-yl)-2-mercaptopyridine-3-carbonitrile] | 5.622 | 3.498 | 8.664 |  | 
COc1ccc2nc(N3CCOCC3)c(-c3cc(-c4cccc(O)c4)nc(S)c3C#N)cc2c1 [6c, 6-(3-Hydroxyphenyl)-4-(6-methoxy-2-morpholin-4-yl-quinolin-3-yl)-2-mercaptopyridine-3-carbonitrile] | 3.730 | 2.593 | 4.434 |  | 
N#Cc1c(-c2cc3cc(Cl)ccc3nc2N2CCCCC2)cc(-c2cccc(O)c2)[nH]c1=O [5e, 4-(6-Chloro-2-(piperidin-1-yl)quinoline-3-yl)-6-(3-hydroxyphenyl)-2-oxo-1,2-dihydropyridine-3-carbonitrile] | 0.675 | 0.440 | 0.764 |  | 
COc1ccc2[nH]c(=O)c(-c3cc(-c4cccc(O)c4)nc(N)c3C#N)cc2c1 [15c, 2-Amino-6-(3-hydroxyphenyl)-4-(6-methoxy-2-oxo-1,2-dihydroquinolin-3-yl)pyridine-3-carbonitrile] | 0.846 | 0.992 | 1.131 |  | 
N#Cc1c(-c2cc3ccccc3[nH]c2=O)cc(-c2cccc(O)c2)nc1N [15a, 2-Amino-6-(3-hydroxyphenyl)-4-(2-oxo-1,2-dihydroquinolin-3-yl)pyridine-3-carbonitrile] | 0.835 | 0.818 | 1.870 |  | 
COc1ccc2nc(N3CCOCC3)c(-c3cc(-c4cccc(O)c4)nc(OCC(=O)O)c3C#N)cc2c1 [9c, 2-((3-Cyano-6-(3-hydroxyphenyl)-4-(6-methoxy-2-morpholin-4-yl-quinolin-3-yl)pyridin-2-yl)oxy)acetic acid] | 5.974 | 2.872 | 3.183 |  | 
COc1ccc(NC(=O)COc2nc(-c3cccc(O)c3)cc(-c3cc4cc(OC)ccc4nc3N3CCOCC3)c2C#N)cc1 [11i, 2-((3-Cyano-6-(3-hydroxyphenyl)-4-(6-methoxy-2-morpholin-4-yl-quinolin-3-yl)pyridin-2-yl)oxy)-N-(4-methoxyphenyl)acetamide] | 4.069 | 0.493 | 5.309 |  | 
COc1ccc2[nH]c(=O)c(-c3cc(-c4cccc(O)c4)nc(S)c3C#N)cc2c1 [14c, 6-(3-Hydroxyphenyl)-2-mercapto-4-(6-methoxy-2-oxo-1,2-dihydroquinolin-3-yl)pyridine-3-carbonitrile] | 2.652 | 1.720 | 2.980 |  | 
N#Cc1c(-c2cc3cc(Cl)ccc3nc2N2CCOCC2)cc(-c2cccc(O)c2)nc1OCC(=O)O [9b, 2-((4-(6-Chloro-2-morpholin-4-yl-quinolin-3-yl)-3-cyano-6-(3-hydroxyphenyl)pyridin-2-yl)oxy)acetic acid] | 1.757 | 0.450 | 3.767 |  | 
N#Cc1c(-c2cc3ccccc3nc2N2CCOCC2)cc(-c2cccc(O)c2)nc1OCC(=O)O [9a, 2-((3-Cyano-6-(3-hydroxyphenyl)-4-(2-morpholin-4-yl-quinolin-3-yl)pyridin-2-yl)oxy)acetic acid] | 1.877 | 1.723 | 2.033 |  | 
N#Cc1c(-c2cc3cc(Cl)ccc3nc2N2CCOCC2)cc(-c2cccc(O)c2)nc1OCC(=O)Nc1ccccc1 [11d, 2-((4-(6-Chloro-2-morpholin-4-yl-quinolin-3-yl)-3-cyano-6-(3-hydroxyphenyl)pyridin-2-yl)oxy)-N-phenylacetamide] | 1.801 | 1.154 | 2.336 |  | 
COc1ccc2nc(N3CCCCC3)c(-c3cc(-c4cccc(O)c4)nc(S)c3C#N)cc2c1 [6e, 6-(3-Hydroxyphenyl)-4-(6-methoxy-2-(piperidin-1-yl)quinolin-3-yl)-2-mercaptopyridine-3-carbonitrile] | 3.613 | 2.876 | 12.705 | 0.30 | 2.53
